This passage reports T/C results from PubChem BioAssay AID330 (DTP/NCI, 2004).

Molecules are shown by their SMILES. The list does not hold the whole screen: it gathers some chemical classes. Not every dose and run of a compound is shown. T/C gives the treated animals as a percentage of the vehicle group. For survival time, the PubChem record calls one and a half times the control and up active, and a quarter to a half above the control has no call in these data; cut-offs in other NCI protocols can differ. Some entries show no survivor count and are marked so; the dose need not have been tolerated. Schedules are NCI's codes, read here as Q, the interval in days (D) or hours (H), X, the number of doses. Some entries were tested several times; the values are given in rising order.

The test system of this assay is P388 leukemia ip, CD2F1 mice, survival T/C. The assay is described as follows: NCI In Vivo Anticancer Drug Screen. Data for tumor model P388 Leukemia (intraperitoneal) in CD2F1 (CDF1) mice. The conditions noted are these: T/C endpoint: median survival time, higher T/C = longer survival.
Setting [1] is: dose: 25.0 mg/kg/injection, schedule: Q04DX003 (ip), vehicle: saline with Tween-80.
Where [2] appears, read: dose: 12.5 mg/kg/injection, schedule: Q01DX009 (ip), vehicle: Klucel (hydroxypropylcellulose) (HPC).
Setting [3] is: dose: 25.0 mg/kg/injection, schedule: Q01DX009 (ip), vehicle: Klucel (hydroxypropylcellulose) (HPC).
[4] abbreviates: dose: 50.0 mg/kg/injection, schedule: Q01DX009 (ip), vehicle: Klucel (hydroxypropylcellulose) (HPC).
The mark [5] stands for this setting: dose: 100.0 mg/kg/injection, schedule: Q01DX009 (ip), vehicle: Klucel (hydroxypropylcellulose) (HPC).

As to `O=S=NN(CCCl)CCCl`, the T/C is 140 % of control [survivor count not shown] (dose: 8.5 mg/kg/injection, schedule: Q04DX003 (ip), vehicle: saline); 160 % of control [survivor count not shown] (dose: 13.0 mg/kg/injection, schedule: Q04DX003 (ip), vehicle: saline); 275 % of control [survivor count not shown] (dose: 20.0 mg/kg/injection, schedule: Q04DX003 (ip), vehicle: saline).

`COc1ccc(C(=O)O)cc1N(CCCl)CCCl`: the T/C was 124 [survivor count not shown] and 133 % of control [survivor count not shown] (dose: 1.0 mg/kg/injection, schedule: Q01DX009 (ip), vehicle: Klucel (hydroxypropylcellulose) (HPC)); 147 [survivor count not shown] and 155 % of control [survivor count not shown] (dose: 2.0 mg/kg/injection, schedule: Q01DX009 (ip), vehicle: Klucel (hydroxypropylcellulose) (HPC)); 140 [survivor count not shown] and 163 % of control [survivor count not shown] (dose: 4.0 mg/kg/injection, schedule: Q01DX009 (ip), vehicle: Klucel (hydroxypropylcellulose) (HPC)); 153 [survivor count not shown] and 200 % of control [survivor count not shown] (dose: 8.0 mg/kg/injection, schedule: Q01DX009 (ip), vehicle: Klucel (hydroxypropylcellulose) (HPC)); 213 % of control [survivor count not shown] (dose: 16.0 mg/kg/injection, schedule: Q01DX009 (ip), vehicle: Klucel (hydroxypropylcellulose) (HPC)).

For `O=C(O)C(=O)Cc1ccc(N(CCCl)CCCl)cc1`, the T/C is 104 % of control [survivor count not shown] (dose: 0.75 mg/kg/injection, schedule: Q04DX003 (ip), vehicle: saline with Tween-80); 109 % of control [survivor count not shown] (dose: 1.5 mg/kg/injection, schedule: Q04DX003 (ip), vehicle: saline with Tween-80); 127 % of control [survivor count not shown] (dose: 3.0 mg/kg/injection, schedule: Q04DX003 (ip), vehicle: saline with Tween-80); 160 % of control [survivor count not shown] (dose: 6.25 mg/kg/injection, schedule: Q04DX003 (ip), vehicle: saline with Tween-80); 177 % of control [survivor count not shown] (dose: 12.5 mg/kg/injection, schedule: Q01DX009 (ip), vehicle: saline + alcohol); 165 % of control [survivor count not shown] (dose: 12.5 mg/kg/injection, schedule: Q04DX003 (ip), vehicle: saline with Tween-80). For the same compound, the T/C (dose: 25.0 mg/kg/injection, schedule: Q01DX009 (ip), vehicle: saline + alcohol) was 200 % of control [survivor count not shown]; the T/C under setting [1] was 175 [survivor count not shown] and 210 % of control [survivor count not shown]; the T/C (dose: 50.0 mg/kg/injection, schedule: Q01DX009 (ip), vehicle: saline + alcohol) is 95 % of control [survivor count not shown]; the T/C (dose: 50.0 mg/kg/injection, schedule: Q04DX003 (ip), vehicle: saline with Tween-80) was 245 % of control [survivor count not shown].

Regarding `CCC(=O)N(c1ccccc1)C1CCNCC1`, the T/C is, setting by setting: (dose: 50.0 mg/kg/injection, schedule: Q01DX009 (ip), vehicle: saline) 99 % of control [survivor count not shown]; (dose: 100.0 mg/kg/injection, schedule: Q01DX009 (ip), vehicle: saline) 99 % of control [survivor count not shown].

As for `ClCCN(CCCl)c1ccc(Cl)cc1`, the T/C runs as follows: under setting [2], 104 % of control [survivor count not shown]; under setting [3], 104 % of control [survivor count not shown]; under setting [4], 108 % of control [survivor count not shown]; under setting [5], 112 % of control [survivor count not shown]; (dose: 200.0 mg/kg/injection, schedule: Q01DX009 (ip), vehicle: Klucel (hydroxypropylcellulose) (HPC)) 101 % of control [survivor count not shown]; (dose: 400.0 mg/kg/injection, schedule: Q01DX009 (ip), vehicle: Klucel (hydroxypropylcellulose) (HPC)) 131 % of control [survivor count not shown].

Turning to `O=P(N(CCCl)CCCl)(N1CC1)N1CC1`, the T/C runs as follows: (dose: 25.0 mg/kg/injection, schedule: Q01DX009 (ip), vehicle: saline with Tween-80) 113 % of control [survivor count not shown]; (dose: 50.0 mg/kg/injection, schedule: Q01DX009 (ip), vehicle: saline with Tween-80) 127 % of control [survivor count not shown]; (dose: 100.0 mg/kg/injection, schedule: Q01DX009 (ip), vehicle: saline with Tween-80) 136 [survivor count not shown] and 141 % of control [survivor count not shown]; (dose: 100.0 mg/kg/injection, schedule: Q04DX003 (ip), vehicle: saline with Tween-80) 112 % of control [survivor count not shown]; (dose: 200.0 mg/kg/injection, schedule: Q04DX003 (ip), vehicle: saline with Tween-80) 137 % of control [survivor count not shown]; (dose: 400.0 mg/kg/injection, schedule: Q04DX003 (ip), vehicle: saline with Tween-80) 158 % of control [survivor count not shown].

Regarding `O=C(O)CCOc1ccccc1N(CCCl)CCCl`, the T/C was 142 % of control [survivor count not shown] (dose: 3.13 mg/kg/injection, schedule: Q01DX009 (ip), vehicle: saline sonified); 157 % of control [survivor count not shown] (dose: 6.25 mg/kg/injection, schedule: Q01DX009 (ip), vehicle: saline sonified); 195 % of control [survivor count not shown] (dose: 8.0 mg/kg/injection, schedule: Q01DX009 (ip), vehicle: saline sonified); 165 % of control [survivor count not shown] (dose: 12.0 mg/kg/injection, schedule: Q01DX009 (ip), vehicle: saline sonified); 161 % of control [survivor count not shown] (dose: 12.5 mg/kg/injection, schedule: Q01DX009 (ip), vehicle: saline sonified); 175 % of control [survivor count not shown] (dose: 18.0 mg/kg/injection, schedule: Q01DX009 (ip), vehicle: saline sonified). Besides, the T/C under setting [1] is 104 % of control [survivor count not shown].

On to `Cc1ccc(N(CCI)CCI)cc1`, for which the T/C reads like this: under setting [2], 161 % of control [survivor count not shown]; under setting [3], 174 % of control [survivor count not shown]; under setting [4], 100 [survivor count not shown] and 166 % of control [survivor count not shown]; under setting [5], 108 % of control [survivor count not shown].
